# Repeats are few or missing, and single values can be far off.
# The chains behind the UniProt entries cited, without tags or fusion partners. Where a name states a change or a piece, a line headed by the entry shows the natural chain unless it says otherwise.
# UniProt O75533, whole entry: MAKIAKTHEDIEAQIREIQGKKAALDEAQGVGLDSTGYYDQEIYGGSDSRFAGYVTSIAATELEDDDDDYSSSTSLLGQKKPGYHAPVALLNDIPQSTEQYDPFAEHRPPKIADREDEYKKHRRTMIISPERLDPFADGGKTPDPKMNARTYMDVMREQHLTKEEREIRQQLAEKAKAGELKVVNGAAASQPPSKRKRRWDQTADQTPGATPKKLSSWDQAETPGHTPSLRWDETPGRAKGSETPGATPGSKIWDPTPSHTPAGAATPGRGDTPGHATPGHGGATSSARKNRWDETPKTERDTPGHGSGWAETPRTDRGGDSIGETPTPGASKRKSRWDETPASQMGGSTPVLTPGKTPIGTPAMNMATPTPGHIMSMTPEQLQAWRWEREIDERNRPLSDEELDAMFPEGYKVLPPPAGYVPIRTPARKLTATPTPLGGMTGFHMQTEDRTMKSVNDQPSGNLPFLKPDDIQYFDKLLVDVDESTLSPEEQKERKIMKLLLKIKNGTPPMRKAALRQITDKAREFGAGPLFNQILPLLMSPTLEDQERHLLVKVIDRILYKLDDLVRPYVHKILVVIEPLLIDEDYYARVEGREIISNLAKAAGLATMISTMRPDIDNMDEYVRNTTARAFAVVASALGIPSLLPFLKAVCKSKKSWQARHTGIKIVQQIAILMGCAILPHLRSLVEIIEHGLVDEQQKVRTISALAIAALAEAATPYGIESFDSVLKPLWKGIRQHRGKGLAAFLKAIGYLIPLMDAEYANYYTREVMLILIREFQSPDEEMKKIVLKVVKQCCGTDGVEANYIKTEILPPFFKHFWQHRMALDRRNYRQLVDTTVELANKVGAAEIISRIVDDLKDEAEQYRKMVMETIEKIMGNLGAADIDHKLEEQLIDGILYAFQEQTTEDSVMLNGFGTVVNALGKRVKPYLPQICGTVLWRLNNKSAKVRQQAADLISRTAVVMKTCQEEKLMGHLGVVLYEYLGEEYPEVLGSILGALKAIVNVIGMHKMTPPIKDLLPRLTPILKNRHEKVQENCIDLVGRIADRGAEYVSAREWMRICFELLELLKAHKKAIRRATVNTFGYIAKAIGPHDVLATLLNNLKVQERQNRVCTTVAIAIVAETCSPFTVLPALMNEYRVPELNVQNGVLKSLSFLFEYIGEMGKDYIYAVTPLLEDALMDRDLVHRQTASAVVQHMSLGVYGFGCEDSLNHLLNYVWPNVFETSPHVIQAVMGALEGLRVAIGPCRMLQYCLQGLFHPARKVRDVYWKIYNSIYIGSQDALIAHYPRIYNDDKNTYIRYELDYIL
# UniProt Q9UHB4: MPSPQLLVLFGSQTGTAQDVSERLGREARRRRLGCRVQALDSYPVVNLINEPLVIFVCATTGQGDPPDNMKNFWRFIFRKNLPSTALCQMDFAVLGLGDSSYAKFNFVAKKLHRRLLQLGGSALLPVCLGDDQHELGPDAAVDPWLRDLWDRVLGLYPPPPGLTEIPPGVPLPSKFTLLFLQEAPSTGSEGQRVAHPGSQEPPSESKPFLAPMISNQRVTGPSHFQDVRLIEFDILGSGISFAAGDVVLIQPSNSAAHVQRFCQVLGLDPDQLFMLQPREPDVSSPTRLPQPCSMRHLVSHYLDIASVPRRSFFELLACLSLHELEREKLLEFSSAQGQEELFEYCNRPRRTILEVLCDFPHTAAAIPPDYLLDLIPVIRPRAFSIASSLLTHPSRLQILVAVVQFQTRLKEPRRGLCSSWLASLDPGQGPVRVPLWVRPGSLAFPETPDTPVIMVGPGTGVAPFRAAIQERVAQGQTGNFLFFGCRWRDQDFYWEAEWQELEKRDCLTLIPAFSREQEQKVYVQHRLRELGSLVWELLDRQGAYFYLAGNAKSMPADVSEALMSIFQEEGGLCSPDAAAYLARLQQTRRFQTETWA
# UniProt Q9H7C4: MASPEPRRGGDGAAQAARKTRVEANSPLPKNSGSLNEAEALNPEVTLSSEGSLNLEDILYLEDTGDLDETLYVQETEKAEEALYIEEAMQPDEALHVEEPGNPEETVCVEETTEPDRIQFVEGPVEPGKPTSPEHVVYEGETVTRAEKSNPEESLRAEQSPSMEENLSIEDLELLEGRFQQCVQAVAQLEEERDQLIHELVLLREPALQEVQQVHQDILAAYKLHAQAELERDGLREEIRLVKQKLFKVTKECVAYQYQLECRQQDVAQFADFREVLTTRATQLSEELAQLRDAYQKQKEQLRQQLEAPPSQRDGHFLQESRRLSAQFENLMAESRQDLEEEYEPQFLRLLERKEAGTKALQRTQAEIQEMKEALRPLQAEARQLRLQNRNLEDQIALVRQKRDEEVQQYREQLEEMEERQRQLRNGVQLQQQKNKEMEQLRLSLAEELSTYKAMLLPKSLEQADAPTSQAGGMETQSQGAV
# UniProt O15231: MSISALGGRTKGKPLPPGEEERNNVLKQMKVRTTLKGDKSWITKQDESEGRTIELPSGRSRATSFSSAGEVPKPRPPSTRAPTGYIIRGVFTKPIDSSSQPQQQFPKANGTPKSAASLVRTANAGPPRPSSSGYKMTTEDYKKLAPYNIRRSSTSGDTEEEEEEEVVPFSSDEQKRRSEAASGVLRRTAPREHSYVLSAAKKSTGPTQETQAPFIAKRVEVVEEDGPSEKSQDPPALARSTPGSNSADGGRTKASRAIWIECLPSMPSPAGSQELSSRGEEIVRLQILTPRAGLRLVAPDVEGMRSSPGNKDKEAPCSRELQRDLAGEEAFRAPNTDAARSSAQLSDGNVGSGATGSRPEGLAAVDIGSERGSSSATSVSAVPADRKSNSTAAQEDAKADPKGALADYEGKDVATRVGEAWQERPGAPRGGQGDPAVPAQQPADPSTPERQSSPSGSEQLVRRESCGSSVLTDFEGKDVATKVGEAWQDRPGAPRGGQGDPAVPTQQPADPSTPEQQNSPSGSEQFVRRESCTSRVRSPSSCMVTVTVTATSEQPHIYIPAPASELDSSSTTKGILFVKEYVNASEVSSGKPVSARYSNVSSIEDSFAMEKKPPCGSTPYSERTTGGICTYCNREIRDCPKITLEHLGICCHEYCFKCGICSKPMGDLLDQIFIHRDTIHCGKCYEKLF
# UniProt Q13325: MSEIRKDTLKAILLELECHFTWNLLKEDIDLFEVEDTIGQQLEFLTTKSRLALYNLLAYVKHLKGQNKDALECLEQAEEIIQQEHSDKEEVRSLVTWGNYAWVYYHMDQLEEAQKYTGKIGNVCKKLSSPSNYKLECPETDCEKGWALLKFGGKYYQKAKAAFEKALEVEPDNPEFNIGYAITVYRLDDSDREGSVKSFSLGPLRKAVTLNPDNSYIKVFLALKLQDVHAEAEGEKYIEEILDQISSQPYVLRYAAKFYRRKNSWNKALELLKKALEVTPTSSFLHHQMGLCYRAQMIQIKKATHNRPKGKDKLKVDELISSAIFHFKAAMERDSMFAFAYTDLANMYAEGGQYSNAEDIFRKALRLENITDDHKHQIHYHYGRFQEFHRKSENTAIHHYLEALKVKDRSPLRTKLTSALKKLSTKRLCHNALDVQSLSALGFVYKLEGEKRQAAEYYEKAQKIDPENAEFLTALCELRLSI
# UniProt Q15036: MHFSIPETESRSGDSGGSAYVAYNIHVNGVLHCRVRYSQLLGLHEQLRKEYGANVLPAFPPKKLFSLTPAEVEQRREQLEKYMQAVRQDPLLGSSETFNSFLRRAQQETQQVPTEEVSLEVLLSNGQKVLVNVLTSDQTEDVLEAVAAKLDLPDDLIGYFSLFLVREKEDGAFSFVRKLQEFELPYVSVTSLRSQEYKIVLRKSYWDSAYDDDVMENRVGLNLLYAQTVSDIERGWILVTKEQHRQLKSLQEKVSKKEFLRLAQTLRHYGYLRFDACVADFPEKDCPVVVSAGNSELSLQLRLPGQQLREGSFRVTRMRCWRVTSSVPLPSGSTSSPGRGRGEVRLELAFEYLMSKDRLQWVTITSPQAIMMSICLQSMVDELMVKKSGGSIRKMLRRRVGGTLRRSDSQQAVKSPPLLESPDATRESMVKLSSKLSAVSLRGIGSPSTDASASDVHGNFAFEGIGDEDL
# UniProt Q9NRP4: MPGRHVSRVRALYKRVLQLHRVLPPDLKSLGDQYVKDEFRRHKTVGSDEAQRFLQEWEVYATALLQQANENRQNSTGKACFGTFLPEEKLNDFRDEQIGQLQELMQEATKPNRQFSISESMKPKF
# UniProt Q8WVP5: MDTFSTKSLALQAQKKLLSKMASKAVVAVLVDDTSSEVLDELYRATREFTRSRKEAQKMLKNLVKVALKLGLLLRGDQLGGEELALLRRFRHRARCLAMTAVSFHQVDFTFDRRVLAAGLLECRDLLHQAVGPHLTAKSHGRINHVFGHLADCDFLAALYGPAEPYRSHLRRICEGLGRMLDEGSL
# UniProt Q13620, whole entry: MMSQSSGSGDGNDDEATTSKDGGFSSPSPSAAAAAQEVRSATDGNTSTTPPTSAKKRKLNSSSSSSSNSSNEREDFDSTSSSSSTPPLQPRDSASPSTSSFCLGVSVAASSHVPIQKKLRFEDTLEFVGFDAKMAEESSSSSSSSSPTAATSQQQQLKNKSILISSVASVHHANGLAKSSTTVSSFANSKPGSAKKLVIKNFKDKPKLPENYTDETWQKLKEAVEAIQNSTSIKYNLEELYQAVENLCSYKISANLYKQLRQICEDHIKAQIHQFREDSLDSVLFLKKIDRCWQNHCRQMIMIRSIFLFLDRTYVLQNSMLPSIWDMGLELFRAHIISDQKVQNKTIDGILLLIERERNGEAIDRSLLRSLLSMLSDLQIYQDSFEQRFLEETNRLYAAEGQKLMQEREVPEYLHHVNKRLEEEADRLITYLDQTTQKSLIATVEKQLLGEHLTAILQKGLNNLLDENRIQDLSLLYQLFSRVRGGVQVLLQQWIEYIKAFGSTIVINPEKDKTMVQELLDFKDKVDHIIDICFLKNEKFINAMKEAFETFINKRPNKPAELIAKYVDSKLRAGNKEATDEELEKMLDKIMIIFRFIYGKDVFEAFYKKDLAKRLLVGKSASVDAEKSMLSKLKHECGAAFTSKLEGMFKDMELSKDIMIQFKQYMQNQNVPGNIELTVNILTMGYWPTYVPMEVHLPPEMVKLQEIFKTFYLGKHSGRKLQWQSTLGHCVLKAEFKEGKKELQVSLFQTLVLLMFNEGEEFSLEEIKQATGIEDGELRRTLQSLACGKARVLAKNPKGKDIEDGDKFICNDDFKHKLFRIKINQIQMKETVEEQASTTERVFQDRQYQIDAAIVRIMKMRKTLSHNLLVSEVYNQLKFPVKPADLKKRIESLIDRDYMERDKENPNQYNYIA
# UniProt Q9UHR5: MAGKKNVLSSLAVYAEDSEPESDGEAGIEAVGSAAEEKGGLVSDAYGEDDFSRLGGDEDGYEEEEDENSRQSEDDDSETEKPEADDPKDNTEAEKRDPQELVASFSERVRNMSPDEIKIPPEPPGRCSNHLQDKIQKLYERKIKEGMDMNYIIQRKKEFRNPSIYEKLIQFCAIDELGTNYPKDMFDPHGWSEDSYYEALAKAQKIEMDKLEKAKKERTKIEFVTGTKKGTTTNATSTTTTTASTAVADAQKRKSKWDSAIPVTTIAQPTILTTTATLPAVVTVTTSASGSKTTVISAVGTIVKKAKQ
# UniProt Q9BSF4: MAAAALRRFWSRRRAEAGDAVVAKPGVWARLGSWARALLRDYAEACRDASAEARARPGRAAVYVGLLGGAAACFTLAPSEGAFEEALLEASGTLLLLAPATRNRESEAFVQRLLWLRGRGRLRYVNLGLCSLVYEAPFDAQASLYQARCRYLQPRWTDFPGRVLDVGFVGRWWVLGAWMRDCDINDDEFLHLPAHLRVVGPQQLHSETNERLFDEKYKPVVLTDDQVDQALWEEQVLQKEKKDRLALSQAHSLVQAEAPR
# UniProt O95182, whole entry: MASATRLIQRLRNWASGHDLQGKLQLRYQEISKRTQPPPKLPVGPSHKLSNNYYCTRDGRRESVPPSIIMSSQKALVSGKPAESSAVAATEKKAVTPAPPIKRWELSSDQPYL
# UniProt Q9BUL8: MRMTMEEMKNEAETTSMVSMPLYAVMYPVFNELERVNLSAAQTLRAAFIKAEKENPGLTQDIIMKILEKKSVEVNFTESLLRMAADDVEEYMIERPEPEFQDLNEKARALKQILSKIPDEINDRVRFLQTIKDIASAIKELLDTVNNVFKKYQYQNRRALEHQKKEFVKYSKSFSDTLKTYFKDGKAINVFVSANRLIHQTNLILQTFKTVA
# UniProt Q9NRH3, whole entry: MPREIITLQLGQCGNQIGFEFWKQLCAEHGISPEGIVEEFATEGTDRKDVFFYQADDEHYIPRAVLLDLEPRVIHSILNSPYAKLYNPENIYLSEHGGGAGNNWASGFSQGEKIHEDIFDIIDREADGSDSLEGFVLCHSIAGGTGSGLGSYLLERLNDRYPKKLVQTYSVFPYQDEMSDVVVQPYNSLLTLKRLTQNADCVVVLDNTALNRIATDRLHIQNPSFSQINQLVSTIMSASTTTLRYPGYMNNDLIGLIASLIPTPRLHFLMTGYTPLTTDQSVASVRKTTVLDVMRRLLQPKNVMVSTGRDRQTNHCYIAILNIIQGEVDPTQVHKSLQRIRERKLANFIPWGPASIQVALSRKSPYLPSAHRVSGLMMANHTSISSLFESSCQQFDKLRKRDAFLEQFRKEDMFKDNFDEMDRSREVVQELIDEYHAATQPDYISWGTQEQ
# Compound: [O-][N+](C(C1=C(C(O)=C2)NC(C(C=C3)=CC=C3Cl)C4C1C=CC4)=C2Cl)=O
# Test: melting temperature shift (compound 7 minus DMSO); higher = compound stabilises the protein
# Conditions: 10 µM
# Protocol: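 Thermal proteome profiling (TMT mass spectrometry) in intact DAOY medulloblastoma cells or DAOY lysates treated with 10 µM compound 7 or DMSO, heated at 10 temperatures from 40.5 to 73.8 °C for 3 min. Melting curves were fitted with the Bioconductor TPP package, and the melting point difference between compound and vehicle is reported per protein (single curve per condition).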
# [1] = system: DAOY cell lysate, treatment time: 20 min, 4 °C
# [2] = system: intact DAOY cells, treatment time: 90 min, 37 °C
Target,melting temperature shift [1] [°C],melting temperature shift [2] [°C]
UniProt O75438,1.48,2.55
UniProt Q96MU7,0.055,0.278
STAU1 (UniProt O95793),0.628,-0.125
RPS24 (UniProt P62847),-1.26,-0.464
NBAS (UniProt A2RRP1),1.37,-1.22
RHBDD2 (UniProt Q6NTF9),-3.02,
RAB21 (UniProt Q9UL25),0.46,-0.287
JUNB (UniProt P17275),,-3.95
UniProt Q9Y2N7,,-1.06
BTBD1 (UniProt Q9H0C5),-0.0429,
UTP20 (UniProt O75691),-0.461,0.548
SF3B1 (UniProt O75533),-0.191,0.142
UniProt O95837,,-0.251
IBTK (UniProt Q9P2D0),-0.934,
EIF4G1 (UniProt Q04637),-0.737,-0.874
UniProt Q6R2W3,,-0.343
GHITM (UniProt Q9H3K2),2.6,1.15
NDOR1 (UniProt Q9UHB4),,-1.07
UniProt Q9H7C4,-2.41,-0.46
FH (UniProt P07954),0.175,-0.285
UniProt O15231,2.93,
XPO1 (UniProt O14980),-0.783,-1.35
DHFR (UniProt P00374),-1.38,-0.0904

Target,melting temperature shift [1] [°C],melting temperature shift [2] [°C]
OS9 (UniProt Q13438),0.452,0.169
WDR55 (UniProt Q9H6Y2),-1.68,-1.74
QDPR (UniProt P09417),-0.22,0.385
SKA1 (UniProt Q96BD8),-2.01,0.057
UniProt Q13325,-0.277,-0.708
CUL3 (UniProt Q13618),-0.305,-0.491
UBE2B (UniProt P63146),-0.477,-0.197
UniProt Q86VZ5,,-3.26
MYH9 (UniProt P35579),-0.416,-0.6
LZIC (UniProt Q8WZA0),-3.4,
UniProt P45984,-1.35,-0.642
UniProt Q8TER5,2.11,
SNX17 (UniProt Q15036),-0.477,1.49
IMPDH1 (UniProt P20839),-0.858,-1.75
UniProt Q99638,-0.415,
CARS (UniProt P49589),-0.621,-0.91
PSME4 (UniProt Q14997),-1.08,-0.43
MAD2L1 (UniProt Q13257),-0.243,-0.421
UniProt P0C0S5,,-0.686
RRAGC (UniProt Q9HB90),-0.573,3.78
DYNC2H1 (UniProt Q8NCM8),-1.76,
DHX36 (UniProt Q9H2U1),0.565,-0.428
RBBP7 (UniProt Q16576),-0.336,0.669

# Looked up above.
# Under melting temperature shift [1] [°C], WDR55 (UniProt Q9H6Y2) shows -1.68
# Under melting temperature shift [1] [°C], CUL3 (UniProt Q13618) shows -0.305
# Under melting temperature shift [1] [°C], DYNC2H1 (UniProt Q8NCM8) shows -1.76
# Under melting temperature shift [2] [°C], PSME4 (UniProt Q14997) shows -0.43

# The list goes on:

Target,melting temperature shift [1] [°C],melting temperature shift [2] [°C]
TAX1BP1 (UniProt Q86VP1),-0.77,0.773
UniProt O95416,-0.283,
PAXIP1 (UniProt Q6ZW49),0.526,
UniProt P08247,,6.1
SMARCD1 (UniProt Q96GM5),-0.87,-1.28
FAM120C (UniProt Q9NX05),0.408,-0.916
IDH2 (UniProt P48735),-0.555,-1.81
UniProt Q7L0J3,3.1,0.757
SDHAF3 (UniProt Q9NRP4),-0.0788,
UniProt Q8WVP5,,-3.14
UniProt Q6UWU4,0.495,-3.98
CEBPZ (UniProt Q03701),0.202,
UniProt Q14117,,0.534
PPAT (UniProt Q06203),-0.83,1.09
CUL4B (UniProt Q13620),-0.332,0.275
SAP30BP (UniProt Q9UHR5),,-1.02
WDR45B (UniProt Q5MNZ6),-0.58,2.24
TSC22D4 (UniProt Q9Y3Q8),5.65,-0.998
CUL5 (UniProt Q93034),-0.732,-0.841
WBP2 (UniProt Q969T9),-1.32,-1.04
KLC4 (UniProt Q9NSK0),5.18,-2.98
UniProt Q9BXU8,2.11,
RAB18 (UniProt Q9NP72),0.396,-1.65

Target,melting temperature shift [1] [°C],melting temperature shift [2] [°C]
UniProt Q9P0S9,2.96,
C19ORF52 (UniProt Q9BSF4),-1.32,1.75
TUBGCP3 (UniProt Q96CW5),-1.98,-0.66
UniProt Q8N819,,0.838
NDUFA7 (UniProt O95182),0.716,-0.22
PDCD10 (UniProt Q9BUL8),-0.668,-0.806
ZFR (UniProt Q96KR1),0.228,-0.0421
UniProt Q9NRH3,,0.91
RTN3 (UniProt O95197),6.2,
PLA2G15 (UniProt Q8NCC3),0.716,
RABGAP1 (UniProt Q9Y3P9),-0.118,-0.0664
AGPAT3 (UniProt Q9NRZ7),0.391,-1.61
UniProt Q8N3V7,,-2.4
STXBP3 (UniProt O00186),0.716,0.414
MTHFD1L (UniProt Q6UB35),-1.02,-2.24
ERC1 (UniProt Q8IUD2),-1.25,-0.18
MVD (UniProt P53602),-1.51,0.41
GLCE (UniProt O94923),3.99,
UniProt Q9BYI3,-0.702,
FAM21A (UniProt Q641Q2),0.542,0.277
REXO2 (UniProt Q9Y3B8),0.345,
SASS6 (UniProt Q6UVJ0),-0.0814,-0.803
FBN1 (UniProt P35555),-0.901,-0.338
